This note sets out measurements from PMC6947481.

By UniProt entry, the sequences of proteins in these tests, tags left out.
UniProt Q2EGB9, whole entry: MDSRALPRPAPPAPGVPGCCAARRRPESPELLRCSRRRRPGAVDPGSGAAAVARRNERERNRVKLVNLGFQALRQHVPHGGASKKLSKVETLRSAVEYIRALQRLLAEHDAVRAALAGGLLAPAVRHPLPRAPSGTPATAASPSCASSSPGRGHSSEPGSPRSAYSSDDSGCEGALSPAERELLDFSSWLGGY

For at least one entry, the source does not settle the construct or the ends of the probe. Results from cells or extracts need not show a direct contact. For some of these results: At least one verdict was read from the data and is not stated in words by the source.

For series [1], the target named is ASCL2 (Bos taurus) (UniProt Q2EGB9). Description: EMSA with antibody. Conditions: antibody weakens the band; Per lane 1.0 uL 10x binding buffer, 0.5 uL 50% glycerol, 0.5 uL 100 mM MgCl2 (LightShift kit); 6% polyacrylamide gel, 0.5x buffer, 110 V 75 min; protein in an extract; label: 5' biotin on both strands.
Series [2] shares this target. Description: competition with a labelled probe. Conditions: unlabelled competitor against N4 probe; Per lane 1.0 uL 10x binding buffer, 0.5 uL 50% glycerol, 0.5 uL 100 mM MgCl2 (LightShift kit); 6% polyacrylamide gel, 0.5x buffer, 110 V 75 min; protein in an extract.
The subject of series [3] is ACSL1 (Bos taurus). Description: EMSA supershift. Conditions: Per lane 1.0 uL 10x binding buffer, 0.5 uL 50% glycerol, 0.5 uL 100 mM MgCl2 (LightShift kit); 6% polyacrylamide gel, 0.5x buffer, 110 V 75 min; protein in an extract; label: 5' biotin on both strands. Background: In EMSA bound probe runs differently from free probe, usually more slowly.
In series [4] the test system is ACSL1 (Bos taurus). In words: competition with a labelled probe. Conditions: unlabelled competitor against N1 probe; Per lane 1.0 uL 10x binding buffer, 0.5 uL 50% glycerol, 0.5 uL 100 mM MgCl2 (LightShift kit); 6% polyacrylamide gel, 0.5x buffer, 110 V 75 min; protein in an extract.

For “TAAGCCCTCCAGCAGCTGCTCCTCTGATTGGCT (double strand) [ASCL2-bio probe]”, the binding result in the series with ASCL2 (Bos taurus) [1] is “binds”.
As for “TAAGCCCTCCAGCAGCTGCTCCTCTGATTGGCT (double strand) [ASCL2-jz competitor]”, the binding result with ASCL2 (Bos taurus) [2] is given as “binds”.
“TGGCTGGGTGGTTCAGCTGCTTCCCTGGAACAGA (double strand) [ACSL1-bio probe]”: in the series with ACSL1 (Bos taurus) [3], the binding result was “binds”.
“TGGCTGGGTGGTTCAGCTGCTTCCCTGGAACAGA (double strand) [ACSL1-jz competitor]”: in the series with ACSL1 (Bos taurus) [4], the binding result was “binds”.
